Laboratory results taken from PMC12261641.
No constants are given. Whether binding was seen depends on the method and setting. Binding seen in cells or lysates may run through a third protein. Some binding calls cover weakened binding; strength is not graded here.

By UniProt entry, the sequences of proteins in these tests, tags left out. Where a name states a change or a piece, a line headed by the entry shows the natural chain unless it says otherwise. Residues count along the entry.
UniProt P10451, residues 17-314: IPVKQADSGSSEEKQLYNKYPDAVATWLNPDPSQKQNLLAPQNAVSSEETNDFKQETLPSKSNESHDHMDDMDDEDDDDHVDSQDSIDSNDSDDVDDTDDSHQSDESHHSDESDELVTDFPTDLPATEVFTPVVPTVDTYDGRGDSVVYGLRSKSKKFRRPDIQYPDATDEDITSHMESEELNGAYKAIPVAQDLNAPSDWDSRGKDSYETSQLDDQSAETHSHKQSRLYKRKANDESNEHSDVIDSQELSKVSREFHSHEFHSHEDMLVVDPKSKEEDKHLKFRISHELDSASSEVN
UniProt P13612: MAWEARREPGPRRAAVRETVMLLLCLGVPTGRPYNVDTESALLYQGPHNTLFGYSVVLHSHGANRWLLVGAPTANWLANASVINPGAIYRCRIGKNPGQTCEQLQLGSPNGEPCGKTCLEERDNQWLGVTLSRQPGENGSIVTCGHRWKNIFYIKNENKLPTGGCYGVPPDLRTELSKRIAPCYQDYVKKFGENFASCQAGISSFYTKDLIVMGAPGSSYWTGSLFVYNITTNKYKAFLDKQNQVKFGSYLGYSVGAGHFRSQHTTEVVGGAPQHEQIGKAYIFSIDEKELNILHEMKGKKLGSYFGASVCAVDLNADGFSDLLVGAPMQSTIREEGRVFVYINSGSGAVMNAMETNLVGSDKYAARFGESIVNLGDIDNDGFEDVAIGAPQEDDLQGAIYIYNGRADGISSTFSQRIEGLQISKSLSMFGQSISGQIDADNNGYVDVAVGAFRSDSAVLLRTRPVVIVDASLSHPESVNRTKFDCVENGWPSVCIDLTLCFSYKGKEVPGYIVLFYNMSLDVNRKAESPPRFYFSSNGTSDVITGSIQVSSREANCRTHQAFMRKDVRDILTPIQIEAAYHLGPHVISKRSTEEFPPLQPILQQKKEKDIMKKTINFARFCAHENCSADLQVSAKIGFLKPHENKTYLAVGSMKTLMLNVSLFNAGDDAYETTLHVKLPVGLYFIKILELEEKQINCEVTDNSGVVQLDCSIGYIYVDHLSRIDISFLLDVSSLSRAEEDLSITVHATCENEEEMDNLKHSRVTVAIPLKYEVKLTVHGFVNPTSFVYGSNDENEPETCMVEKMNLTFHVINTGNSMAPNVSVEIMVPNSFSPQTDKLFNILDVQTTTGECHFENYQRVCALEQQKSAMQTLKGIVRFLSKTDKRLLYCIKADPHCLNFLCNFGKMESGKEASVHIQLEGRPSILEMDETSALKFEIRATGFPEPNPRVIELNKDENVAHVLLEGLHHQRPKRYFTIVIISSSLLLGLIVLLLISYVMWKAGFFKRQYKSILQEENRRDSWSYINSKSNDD

Target: His-tagged SPP1 secreted by BC cells (coculture with THP-1 cells) (UniProt P10451)
Assay: co-IP; M1-polarized THP-1 cells with His-tagged SPP1 secreted by BC cells; protein A/G beads with antibody, 5 h, 4 °C; IP buffer 20 mM Tris-HCl pH 7.5, 150 mM NaCl, 1% Triton X-100; western blot

Substance: integrin α4/β1 (ITGA4/ITGB1) complex, human, endogenous in THP-1 cells (from UniProt P13612 34-1032; P05556 21-798)
- binding: binds
